Test results: PubChem BioAssay AID504467 (National Center for Advancing Translational Sciences (NCATS), 2011)
Among all 330,000 compounds or so, about 7,700 (2.3%) were called active. Inconclusive means that the source gave no clear call. Such entries were picked first, then a sample of the others. The call rests on the fitted dose curve; in most records, active means well fitted inhibition curve with a large enough effect; inconclusive means small, poorly fitted or top-dose-only effect, or effect the other way; inactive means flat fitted curve, though single readings scatter. Where the call is inconclusive, the potency comes from a doubtful curve fit.
On the % scale 0 is the no-effect control and ±100 the full control effect; potency means the concentration at half of the fitted maximal effect.

Experiment: qHTS screen for small molecules that inhibit ELG1-dependent DNA repair in human embryonic kidney (HEK293T) cells expressing luciferase-tagged ELG1; further: nearly all actives have a fitted effect of over 55% in size
Conditions: HEK293T ELG1-luciferase reporter, luminescence, 16 h, DNA damage induced by 5-fluorouridine; activity change, negative = inhibition: at 46.1 µM (top of the series)
In short: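 DMSO vehicle served as the neutral condition. Each well held 2,000 cells given 5-fluorouridine plus compound; after 16 hr at 37 °C/5% CO2, ONE-Glo was added and luciferase measured 30 min later.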
In the case of CC(=O)c1ccc2c(c1)C1C(Cl)C(Sc3ccccc3[N+](=O)[O-])CC1C(c1ccccc1)N2 (centres undefined), the Potency was inconclusive: 29.1 µM [inhibitor, single point].
For Cc1c(O)ccc(C(=O)CN2CC(C)OC(C)C2)c1O (centres undefined), the Potency was inconclusive: 18.3 µM [activator, partial curve, poor fit].
In the case of CC(C)CCOP(=O)(c1ccc(N(C)C)cc1)C(O)c1ccc(Cl)cc1Cl (centres undefined), the Potency was inconclusive: 10.3 µM [inhibitor, partial curve, poor fit].
For O=C(CNC(=O)c1ccccc1Cl)Nc1ccc(Br)cc1C(=O)c1ccccc1, the Potency was inconclusive: 29.1 µM [inhibitor, single point].
In the case of CC(=O)O[C@@]12CO[C@@H]1C[C@@H](O)[C@@]1(C)C(=O)[C@H](O)C3=C(C)[C@@H](OC(=O)[C@H](O)[C@@H](NC(=O)c4ccccc4)c4ccccc4)C[C@@](O)([C@@H](OC(=O)c4ccccc4)C12)C3(C)C (some centres undefined), the Potency was inconclusive: 0.259 µM [inhibitor, full curve, poor fit].
In the case of COc1cc2c(cc1OC)CC[N+](C)=C2, the Potency was inconclusive: 29.1 µM [inhibitor, partial curve, poor fit].
In the case of COC(=O)C1=C(c2cccc(OCc3ccccc3)c2)C[C@@H]2CC[C@H]1N2C(=O)NCc1ccc([N+](=O)[O-])cc1, the “activity change, negative = inhibition” value was inactive: -28.2%.
In the case of CCOC(=O)C1(c2ccccc2)CCN(CC(=O)Nc2ccc(C)cc2)CC1, the “activity change, negative = inhibition” value was inactive: -0.715%.
With Cn1c(=O)cc(SCC(=O)N2CCC3(CC2)OCCO3)c2ccc(Cl)cc21 the Potency was inconclusive: 13 µM [activator, partial curve, poor fit].
For CC1=CC2/C=C(\C)CCC(O)C(O)/C=C/C(=O)C23C(=O)NC(CC(C)C)C3C1C (centres undefined), the Potency was inconclusive: 18.3 µM [inhibitor, single point].
With CCOc1cc2c(cc1OCC)-n1cccc1C(c1cccc(OCC)c1O)NC2 (centres undefined) the Potency was inconclusive: 20.6 µM [inhibitor, partial curve, poor fit].
In the case of CCOc1cc(C2NCc3ccccc3-n3cccc32)ccc1OC (centres undefined), the “activity change, negative = inhibition” value was inactive: 3.9%.
With [O-]c1ccccc1-[n+]1c(-c2ccccc2)cc(-c2ccccc2)cc1-c1ccccc1 the Potency was inconclusive: 31.6 µM [inhibitor, single point].
With Brc1ccc(-[n+]2c(-c3ccccc3)cc(-c3ccccc3)cc2-c2ccccc2)cc1 the Potency was inconclusive: 6.31 µM [inhibitor, single point].
In the case of O=c1c2ccccc2cnn1Cc1n[nH]c(=S)n1C1CC2CCC1C2 (centres undefined), the Potency was inconclusive: 13 µM [inhibitor, partial curve].
For COc1cc(CN2CCN(c3cc(C)ccc3C)CC2)ccc1O, the “activity change, negative = inhibition” value was inactive: 10.3%.
For CN(C(=O)Oc1ccc(C(=O)c2ccc(Cl)cc2)cc1)c1ccccc1, the “activity change, negative = inhibition” value was inactive: -9.51%.
In the case of COC(=O)C1=C(c2ccc(OCc3ccccc3)cc2)C[C@@H]2CC[C@H]1N2C(=O)NCCCc1ccccc1, the “activity change, negative = inhibition” value was inactive: -15.4%.
For Cc1ccc2c(c1)C1CN(C)CCC1N2C(=O)Nc1ccc(Cl)cc1 (centres undefined), the Potency was inconclusive: 29.1 µM [activator, single point].
With COC(=O)C(O)(c1ccc(N(C)C(=O)c2ccc(Cl)c(Cl)c2)cc1)C(F)(F)F (centres undefined) the Potency was inconclusive: 23.1 µM [activator, partial curve, poor fit].
With O=C1NC(=O)C(=Cc2ccc(N3CCOCC3)o2)C(=O)N1 the Potency was inconclusive: 29.1 µM [activator, partial curve, poor fit].
For COc1ccc(/C=C2\SC(=O)N(CCn3cnnn3)C2=O)cc1, the Potency was inconclusive: 20.6 µM [activator, partial curve].
In the case of O=c1c2ccccc2nc(-c2ccccc2)n1-c1ccc(O)cc1, the Potency was inconclusive: 20.6 µM [inhibitor, single point].
For CC(=O)[C@@]1(O)CC[C@H]2[C@@H]3CC=C4C[C@@H](O)CC[C@]4(C)[C@H]3CC[C@@]21C, the “activity change, negative = inhibition” value was inactive: -8.05%.
With C=CCn1c(O)c(C(C)=O)c(=O)[nH]c1=O (tested in a mixture with another compound) the “activity change, negative = inhibition” value was inactive: 17.5%.
With O=c1[nH]c2ccccc2c(=O)n1-c1ccc(Cl)cc1Cl the Potency was inconclusive: 14.6 µM [inhibitor, single point].
In the case of O=c1c2ccccc2nc(/C=C/c2ccc3c(c2)OCO3)n1-c1ccccc1, the Potency was inconclusive: 25.9 µM [inhibitor, single point].
With CCc1ccc(CN2CCN(C(=O)Cc3ccccc3)CC2)cc1 the Potency was inconclusive: 23.1 µM [inhibitor, single point].
For O=C(CNC(=O)c1ccc(Cl)cc1)OCC(=O)c1ccc2c(c1)OCCO2, the Potency was inconclusive: 23.1 µM [activator, single point].
For COc1ccccc1/C=C1\C(=O)NC(=S)N(c2ccccc2)C1=O, the “activity change, negative = inhibition” value was inactive: -2.02%.
With O=[N+]([O-])c1ccc(Cl)c([N+](=O)[O-])c1 the Potency was inconclusive: 35.5 µM [inhibitor, single point].
With COC(=O)C1=C(c2ccc(Cl)c(C(F)(F)F)c2)C[C@@H]2CC[C@H]1N2C(=O)N1CCC(O)(c2ccc(Cl)cc2)CC1 the Potency was inconclusive: 18.3 µM [inhibitor, single point].
For Cc1ccn2nc(S(=O)(=O)Nc3c(F)cccc3F)nc2n1, the “activity change, negative = inhibition” value was inactive: 2.73%.
In the case of O=[N+]([O-])O[C@H]1CO[C@H]2[C@@H]1OC[C@H]2O[N+](=O)[O-], the “activity change, negative = inhibition” value was inactive: 8%.
For O=C(COc1ccc(S(=O)(=O)N2CCCCC2)cc1)N1CCN(Cc2ccccc2)CC1, the Potency was inconclusive: 23.1 µM [inhibitor, partial curve, poor fit].
In the case of COc1cc(CN=Cc2c(O)n(Cc3ccccc3)c(=S)[nH]c2=O)cc(OC)c1, the Potency was inconclusive: 23.1 µM [inhibitor, single point].
In the case of CCC(=O)c1cn(Cc2ccccc2)c2ccccc12, the “activity change, negative = inhibition” value was inactive: -5.56%.
In the case of O=[N+]([O-])c1cccc(CN2CC=C(c3ccc(F)cc3)CC2)c1, the “activity change, negative = inhibition” value was inactive: -2.57%.
For C=CCN1CC[C@]23c4c5ccc(O)c4OC2C(O)C=CC3[C@H]1C5 (some centres undefined), the “activity change, negative = inhibition” value was inactive: -0.802%.
In the case of CCCNC(=O)N1[C@H]2CC[C@@H]1C(C(=O)OC)=C(c1cccc(C#N)c1)C2, the Potency was inconclusive: 13 µM [activator, partial curve, poor fit].
With COC(=O)C1C(OC(=O)c2ccccc2)CC2CCC1N2C (centres undefined) the Potency was inconclusive: 23.1 µM [activator, partial curve, poor fit].
With CCN(C[C@H]1N[C@@](CC)(C(=O)OC)[C@H]2C(=O)N(Cc3ccccc3)C(=O)[C@@H]12)S(=O)(=O)c1ccc(OC)cc1 the Potency was inconclusive: 18.3 µM [inhibitor, partial curve].
For CC1=Nc2ccccc2/C1=C/c1c(O)[nH]c(=O)[nH]c1=O, the “activity change, negative = inhibition” value was inactive: 8.05%.
For CC1CCCCN1C(=O)c1ccc(N2CC3CC(C2)c2cccc(=O)n2C3)c([N+](=O)[O-])c1 (centres undefined), the “activity change, negative = inhibition” value was inactive: -5.04%.
For Cc1c(C)n(O)c2ccc3nonc3c12, the Potency was inconclusive: 20.6 µM [inhibitor, partial curve, poor fit].
For O=C(Nc1ccccc1Cl)OC1CN2CCC1CC2 (centres undefined), the Potency was inconclusive: 0.259 µM [activator, single point].
In the case of Cn1cc(C(O)CN2CCCCC2)c2ccccc21 (centres undefined), the “activity change, negative = inhibition” value was inactive: -16.5%.
With Cc1cc(C)nc(-n2c(C)nc3cc(Cl)ccc3c2=O)c1 the “activity change, negative = inhibition” value was inactive: 14.5%.
For CC(=NCCC(c1ccccc1)c1ccccc1)c1c(O)n(C)c(=O)n(C)c1=O, the Potency was inconclusive: 25.9 µM [inhibitor, single point].
In the case of COc1ccc(O)c(C(=O)c2cnn(-c3ccccn3)c2)c1, the Potency was inconclusive: 11.6 µM [activator, partial curve].
For O=C(CCCN1CCC2(CC1)C(=O)NCN2c1ccccc1)c1ccc(F)cc1, the Potency was inconclusive: 13 µM [activator, partial curve, poor fit].
With CCOC(=O)C1(CCOc2ccccc2)CCN(Cc2cccc(O)c2)CC1 the “activity change, negative = inhibition” value was inactive: -14.2%.
In the case of COc1ccc(C(=O)CC2(CC(=O)c3ccc(OC)cc3)C(=O)N(C)C(=O)N(C)C2=O)cc1, the Potency was active: 1.64 µM.
For C/C=C1/C[C@@H](C)[C@](O)(CO)C(=O)OCC2=CCN3CC[C@@H](OC1=O)[C@@H]23, the Potency was inconclusive: 4.47 µM [activator, full curve, poor fit].
For COC(=O)c1ccc(N2C(=O)CC(N3CCC(n4c(=O)[nH]c5ccccc54)CC3)C2=O)cc1 (centres undefined), the “activity change, negative = inhibition” value was inactive: -12.9%.
In the case of COc1ccc(OCC(=O)N2CCCC(N3CCN(c4ccccc4C)CC3)C2)cc1 (centres undefined), the Potency was inconclusive: 23.1 µM [inhibitor, partial curve].
In the case of O=c1[nH]c(=O)n(-c2cccc(F)c2)c(O)c1/C=C1\C=Nc2ccccc21, the Potency was inconclusive: 18.3 µM [activator, single point].
With CN(C)C(Cc1ccccc1)C(=O)c1c[nH]c2ccccc12 (centres undefined) the “activity change, negative = inhibition” value was inactive: 14.7%.
In the case of C[C@]12CC[C@H](O)CC1=CCC1C2CC[C@]2(C)C(=O)[C@H](Br)CC12 (some centres undefined), the Potency was inconclusive: 29.1 µM [inhibitor, single point].
For Cc1cc(OC(=O)CCNC(=O)OC(C)(C)C)c2c3c(c(=O)oc2c1)CCC3, the Potency was inconclusive: 25.9 µM [inhibitor, partial curve].
With CCn1c(O)c(C(=O)CC2NCCc3ccccc32)c(=O)n(CC)c1=S (centres undefined) the Potency was inconclusive: 4.11 µM [inhibitor, partial curve, poor fit].
With O=C(CNS(=O)(=O)c1cccs1)N1CCC2(CC1)OCCO2 the Potency was inconclusive: 23.1 µM [activator, single point].
With CCOP(=O)(Cc1ccccc1)OCC the “activity change, negative = inhibition” value was inactive: 23.1%.
With COC(=O)C1=C(c2ccccc2OCc2ccccc2)C[C@@H]2CC[C@H]1N2C(=O)NCc1ccc(Cl)cc1 the Potency was inconclusive: 9.2 µM [inhibitor, partial curve, poor fit].
